Experimental data as given in PMC6707248.
No constants are given. Whether binding was seen depends on the method and setting. Binding seen in cells or lysates may run through a third protein. Binding can be weak; no strength is given.

Sequences of proteins named here, by UniProt entry; tags and fusion partners are left off. A change or cut given only in a name is not applied to a line headed by its entry.
UniProt P06748: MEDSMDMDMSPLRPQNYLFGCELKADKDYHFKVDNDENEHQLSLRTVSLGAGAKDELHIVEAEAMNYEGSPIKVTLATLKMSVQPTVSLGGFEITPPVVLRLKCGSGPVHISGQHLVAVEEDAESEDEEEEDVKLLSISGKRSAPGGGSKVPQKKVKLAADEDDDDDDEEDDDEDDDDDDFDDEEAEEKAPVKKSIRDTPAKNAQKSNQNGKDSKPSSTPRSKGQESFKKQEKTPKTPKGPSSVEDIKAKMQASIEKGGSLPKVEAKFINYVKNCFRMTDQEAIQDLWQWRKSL
UniProt Q9Y3D8: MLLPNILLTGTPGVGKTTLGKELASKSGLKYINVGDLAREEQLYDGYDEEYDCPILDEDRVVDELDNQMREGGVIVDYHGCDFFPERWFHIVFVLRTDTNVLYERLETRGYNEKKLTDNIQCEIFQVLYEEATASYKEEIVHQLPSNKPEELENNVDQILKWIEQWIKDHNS

Biological target: endogenous NPM1 of the NPM1 mutant OCI-AML3 cell line (human (endogenous in OCI-AML3)) (UniProt P06748)
Assay: co-IP; endogenous proteins, NPM1 mutant OCI-AML3 cell line (Supplementary Fig. 2b)

binding: binds
Substance: endogenous hCINAP (from UniProt Q9Y3D8 1-172)
